This is one part of the list. Most entries show no effect beyond the scatter of the controls.

Protein sequences, listed by entry. Tags and fused reporters are not part of them. Lines headed by an entry give the natural chain unless they say otherwise; changes in a name come on top.
UniProt Q91W39: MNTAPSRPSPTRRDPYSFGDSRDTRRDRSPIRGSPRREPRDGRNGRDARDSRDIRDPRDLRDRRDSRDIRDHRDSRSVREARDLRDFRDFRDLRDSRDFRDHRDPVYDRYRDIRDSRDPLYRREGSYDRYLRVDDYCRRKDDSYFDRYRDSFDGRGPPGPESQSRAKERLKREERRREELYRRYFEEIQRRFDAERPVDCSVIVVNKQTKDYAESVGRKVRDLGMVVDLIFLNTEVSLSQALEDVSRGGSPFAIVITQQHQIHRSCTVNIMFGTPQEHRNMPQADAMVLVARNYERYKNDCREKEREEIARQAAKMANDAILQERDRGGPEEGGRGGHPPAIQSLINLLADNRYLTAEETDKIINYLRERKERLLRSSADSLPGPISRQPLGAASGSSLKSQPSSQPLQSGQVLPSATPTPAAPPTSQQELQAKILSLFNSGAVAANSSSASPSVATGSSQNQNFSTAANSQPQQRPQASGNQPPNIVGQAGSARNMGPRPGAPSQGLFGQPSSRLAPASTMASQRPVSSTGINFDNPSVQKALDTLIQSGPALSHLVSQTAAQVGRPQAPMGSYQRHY
UniProt Q91YN5: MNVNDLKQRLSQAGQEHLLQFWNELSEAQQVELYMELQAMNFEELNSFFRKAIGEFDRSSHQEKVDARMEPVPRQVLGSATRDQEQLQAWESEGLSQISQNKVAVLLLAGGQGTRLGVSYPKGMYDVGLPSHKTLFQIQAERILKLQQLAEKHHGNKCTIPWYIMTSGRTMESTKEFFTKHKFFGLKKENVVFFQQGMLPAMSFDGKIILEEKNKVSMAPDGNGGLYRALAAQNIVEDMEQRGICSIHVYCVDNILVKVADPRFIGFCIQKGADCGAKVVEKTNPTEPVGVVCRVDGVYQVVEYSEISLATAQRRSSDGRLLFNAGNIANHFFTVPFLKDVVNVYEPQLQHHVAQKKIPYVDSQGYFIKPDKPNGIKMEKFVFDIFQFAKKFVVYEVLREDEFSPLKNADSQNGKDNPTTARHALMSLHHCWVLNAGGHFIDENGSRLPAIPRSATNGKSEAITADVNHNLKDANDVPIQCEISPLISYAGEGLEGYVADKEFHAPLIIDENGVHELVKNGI
UniProt Q91WE1: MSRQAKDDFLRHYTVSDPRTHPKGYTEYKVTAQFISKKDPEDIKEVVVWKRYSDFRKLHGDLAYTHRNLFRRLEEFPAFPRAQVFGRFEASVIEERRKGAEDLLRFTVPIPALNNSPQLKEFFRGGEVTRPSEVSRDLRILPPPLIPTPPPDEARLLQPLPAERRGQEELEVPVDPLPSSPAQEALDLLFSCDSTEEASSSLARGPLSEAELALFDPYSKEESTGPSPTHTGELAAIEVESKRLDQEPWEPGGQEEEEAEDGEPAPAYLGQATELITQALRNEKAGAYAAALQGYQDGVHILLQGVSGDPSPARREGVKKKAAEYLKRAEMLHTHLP
UniProt Q91XE0: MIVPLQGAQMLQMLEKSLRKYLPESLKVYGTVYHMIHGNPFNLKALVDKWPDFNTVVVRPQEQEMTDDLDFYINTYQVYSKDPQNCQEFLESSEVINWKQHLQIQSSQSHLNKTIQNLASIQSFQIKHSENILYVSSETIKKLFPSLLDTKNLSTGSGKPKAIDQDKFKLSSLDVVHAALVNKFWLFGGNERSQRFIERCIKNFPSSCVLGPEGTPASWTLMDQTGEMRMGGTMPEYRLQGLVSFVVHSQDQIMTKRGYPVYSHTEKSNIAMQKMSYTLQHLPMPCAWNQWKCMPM
UniProt Q91VR5: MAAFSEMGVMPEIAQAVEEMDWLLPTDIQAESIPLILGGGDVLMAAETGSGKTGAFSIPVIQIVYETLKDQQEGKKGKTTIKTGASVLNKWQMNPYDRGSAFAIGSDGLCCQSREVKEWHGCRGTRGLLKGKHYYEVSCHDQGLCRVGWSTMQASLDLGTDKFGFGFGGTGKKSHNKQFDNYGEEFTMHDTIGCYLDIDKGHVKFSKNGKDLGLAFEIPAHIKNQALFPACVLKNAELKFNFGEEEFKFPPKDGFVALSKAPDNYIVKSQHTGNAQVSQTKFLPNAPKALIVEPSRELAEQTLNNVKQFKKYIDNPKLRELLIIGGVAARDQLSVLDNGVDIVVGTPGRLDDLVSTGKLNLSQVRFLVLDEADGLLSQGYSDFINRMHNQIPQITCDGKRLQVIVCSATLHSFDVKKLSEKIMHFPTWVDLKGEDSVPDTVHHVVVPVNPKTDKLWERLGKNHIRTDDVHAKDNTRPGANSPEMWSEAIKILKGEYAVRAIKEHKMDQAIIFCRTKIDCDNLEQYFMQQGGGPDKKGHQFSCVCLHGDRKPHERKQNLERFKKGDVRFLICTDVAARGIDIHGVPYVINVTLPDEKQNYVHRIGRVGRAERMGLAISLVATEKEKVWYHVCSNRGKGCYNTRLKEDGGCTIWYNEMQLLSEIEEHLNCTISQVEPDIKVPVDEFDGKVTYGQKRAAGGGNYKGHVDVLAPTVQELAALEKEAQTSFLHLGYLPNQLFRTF
UniProt Q8VIG0: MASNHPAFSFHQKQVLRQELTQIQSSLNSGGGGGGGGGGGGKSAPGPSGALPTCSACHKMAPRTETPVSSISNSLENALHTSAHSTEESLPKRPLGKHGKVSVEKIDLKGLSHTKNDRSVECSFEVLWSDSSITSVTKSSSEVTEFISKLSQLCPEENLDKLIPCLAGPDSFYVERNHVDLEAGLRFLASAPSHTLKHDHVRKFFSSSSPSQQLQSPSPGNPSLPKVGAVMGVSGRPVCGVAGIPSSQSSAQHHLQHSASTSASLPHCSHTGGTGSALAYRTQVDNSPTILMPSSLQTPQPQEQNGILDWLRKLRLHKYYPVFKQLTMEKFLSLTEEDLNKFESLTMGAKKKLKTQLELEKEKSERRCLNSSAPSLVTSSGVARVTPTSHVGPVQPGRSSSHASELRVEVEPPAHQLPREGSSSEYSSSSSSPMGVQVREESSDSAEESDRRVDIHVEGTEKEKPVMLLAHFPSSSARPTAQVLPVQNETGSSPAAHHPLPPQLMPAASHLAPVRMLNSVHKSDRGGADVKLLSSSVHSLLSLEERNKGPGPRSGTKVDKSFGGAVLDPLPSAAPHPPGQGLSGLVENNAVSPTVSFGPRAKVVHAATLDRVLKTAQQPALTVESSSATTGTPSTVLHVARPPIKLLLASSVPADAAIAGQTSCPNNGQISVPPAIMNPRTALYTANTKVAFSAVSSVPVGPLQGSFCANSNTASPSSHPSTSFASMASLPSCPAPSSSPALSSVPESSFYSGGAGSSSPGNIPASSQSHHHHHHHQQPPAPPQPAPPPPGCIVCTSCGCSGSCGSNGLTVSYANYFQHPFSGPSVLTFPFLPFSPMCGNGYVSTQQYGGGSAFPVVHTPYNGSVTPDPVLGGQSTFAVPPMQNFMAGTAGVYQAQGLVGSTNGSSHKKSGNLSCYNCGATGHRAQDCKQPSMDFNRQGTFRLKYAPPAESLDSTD
UniProt Q91YM4: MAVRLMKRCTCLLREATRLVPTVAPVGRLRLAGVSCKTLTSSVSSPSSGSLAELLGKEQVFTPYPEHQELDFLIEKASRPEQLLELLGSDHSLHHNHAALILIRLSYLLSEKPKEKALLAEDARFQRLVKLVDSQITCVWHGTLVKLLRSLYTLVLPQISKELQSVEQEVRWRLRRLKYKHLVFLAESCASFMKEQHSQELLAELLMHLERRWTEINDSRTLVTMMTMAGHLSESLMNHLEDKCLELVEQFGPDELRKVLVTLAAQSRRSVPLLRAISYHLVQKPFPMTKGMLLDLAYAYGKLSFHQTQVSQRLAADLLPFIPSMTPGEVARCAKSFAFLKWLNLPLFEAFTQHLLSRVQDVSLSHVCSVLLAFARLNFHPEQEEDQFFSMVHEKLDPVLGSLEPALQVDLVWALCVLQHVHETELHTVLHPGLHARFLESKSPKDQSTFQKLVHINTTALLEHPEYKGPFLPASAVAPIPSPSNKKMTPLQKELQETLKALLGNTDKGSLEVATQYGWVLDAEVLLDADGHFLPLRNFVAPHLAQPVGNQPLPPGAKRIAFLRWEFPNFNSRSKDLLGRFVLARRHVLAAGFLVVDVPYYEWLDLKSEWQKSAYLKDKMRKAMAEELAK
UniProt Q91ZF0: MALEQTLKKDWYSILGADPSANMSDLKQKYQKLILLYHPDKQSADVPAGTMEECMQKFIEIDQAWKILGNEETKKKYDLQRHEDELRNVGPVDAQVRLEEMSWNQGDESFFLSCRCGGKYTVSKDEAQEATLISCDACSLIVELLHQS
UniProt Q91VW3: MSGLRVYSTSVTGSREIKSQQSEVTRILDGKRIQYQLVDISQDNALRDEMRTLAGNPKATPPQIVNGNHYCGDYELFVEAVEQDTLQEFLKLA
UniProt Q91ZR2: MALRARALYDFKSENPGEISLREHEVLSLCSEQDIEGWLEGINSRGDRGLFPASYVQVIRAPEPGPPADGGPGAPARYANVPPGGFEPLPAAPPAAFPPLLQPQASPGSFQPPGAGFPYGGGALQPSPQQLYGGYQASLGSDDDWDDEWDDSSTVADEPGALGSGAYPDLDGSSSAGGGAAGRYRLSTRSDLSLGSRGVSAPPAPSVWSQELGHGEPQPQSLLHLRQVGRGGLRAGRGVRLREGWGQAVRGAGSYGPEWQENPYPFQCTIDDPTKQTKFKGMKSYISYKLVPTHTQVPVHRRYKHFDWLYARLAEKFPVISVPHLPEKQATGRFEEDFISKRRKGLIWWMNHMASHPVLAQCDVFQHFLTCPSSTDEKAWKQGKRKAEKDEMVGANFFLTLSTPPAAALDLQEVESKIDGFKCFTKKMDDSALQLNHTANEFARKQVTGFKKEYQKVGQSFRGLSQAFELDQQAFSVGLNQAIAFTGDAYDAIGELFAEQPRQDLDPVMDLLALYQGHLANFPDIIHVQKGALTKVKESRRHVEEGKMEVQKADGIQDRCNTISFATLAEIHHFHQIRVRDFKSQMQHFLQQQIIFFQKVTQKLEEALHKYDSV
UniProt Q91WN1: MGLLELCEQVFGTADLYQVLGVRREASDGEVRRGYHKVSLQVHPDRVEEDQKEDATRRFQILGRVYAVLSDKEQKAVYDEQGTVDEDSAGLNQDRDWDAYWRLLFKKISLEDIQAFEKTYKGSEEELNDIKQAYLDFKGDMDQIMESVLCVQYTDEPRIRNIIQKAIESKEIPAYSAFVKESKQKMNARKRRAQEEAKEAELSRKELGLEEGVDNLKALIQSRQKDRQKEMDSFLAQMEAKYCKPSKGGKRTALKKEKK
UniProt Q91YR5: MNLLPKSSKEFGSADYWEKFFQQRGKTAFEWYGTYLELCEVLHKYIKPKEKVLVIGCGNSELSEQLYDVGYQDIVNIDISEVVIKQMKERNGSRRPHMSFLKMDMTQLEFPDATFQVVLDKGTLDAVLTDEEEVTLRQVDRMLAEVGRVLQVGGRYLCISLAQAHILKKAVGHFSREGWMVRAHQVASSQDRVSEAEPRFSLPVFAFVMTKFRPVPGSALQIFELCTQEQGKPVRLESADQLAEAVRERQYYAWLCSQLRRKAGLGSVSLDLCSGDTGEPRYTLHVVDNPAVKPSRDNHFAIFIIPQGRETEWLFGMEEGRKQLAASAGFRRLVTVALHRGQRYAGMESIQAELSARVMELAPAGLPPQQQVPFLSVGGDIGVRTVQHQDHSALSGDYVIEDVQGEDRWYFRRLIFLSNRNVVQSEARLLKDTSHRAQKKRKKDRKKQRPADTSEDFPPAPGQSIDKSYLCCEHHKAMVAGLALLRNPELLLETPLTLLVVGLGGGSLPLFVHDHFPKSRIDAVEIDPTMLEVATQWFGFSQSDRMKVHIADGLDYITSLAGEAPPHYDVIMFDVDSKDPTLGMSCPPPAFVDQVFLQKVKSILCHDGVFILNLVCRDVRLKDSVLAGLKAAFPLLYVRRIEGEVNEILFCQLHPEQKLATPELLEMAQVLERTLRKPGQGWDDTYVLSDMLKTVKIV
UniProt Q91YJ5: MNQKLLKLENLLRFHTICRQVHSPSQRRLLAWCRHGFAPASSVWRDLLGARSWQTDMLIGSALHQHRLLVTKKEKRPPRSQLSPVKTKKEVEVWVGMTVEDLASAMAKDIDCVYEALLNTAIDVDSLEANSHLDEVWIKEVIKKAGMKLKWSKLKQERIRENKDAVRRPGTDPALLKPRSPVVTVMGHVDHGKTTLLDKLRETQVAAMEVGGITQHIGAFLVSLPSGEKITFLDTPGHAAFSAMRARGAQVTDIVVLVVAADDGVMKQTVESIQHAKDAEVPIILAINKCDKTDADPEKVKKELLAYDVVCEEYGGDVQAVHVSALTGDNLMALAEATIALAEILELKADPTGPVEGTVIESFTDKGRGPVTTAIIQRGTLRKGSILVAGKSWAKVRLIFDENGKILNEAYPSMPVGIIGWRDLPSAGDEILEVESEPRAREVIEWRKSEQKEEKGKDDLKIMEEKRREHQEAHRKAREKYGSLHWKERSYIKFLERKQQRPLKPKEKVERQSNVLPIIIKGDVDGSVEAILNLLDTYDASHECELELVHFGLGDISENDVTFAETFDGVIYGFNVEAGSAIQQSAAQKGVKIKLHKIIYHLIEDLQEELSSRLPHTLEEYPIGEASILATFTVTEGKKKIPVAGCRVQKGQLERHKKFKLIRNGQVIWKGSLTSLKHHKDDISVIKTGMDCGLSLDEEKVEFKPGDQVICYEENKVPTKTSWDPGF

Compound in the assay: CN[C@@H]1C[C@H]2O[C@@](C)([C@@H]1OC)n1c3ccccc3c3c4c(c5c6ccccc6n2c5c31)C(=O)NC4 [staurosporine]
In words: log2 fold change of tryptic peptide abundance, ligand vs vehicle (limited proteolysis) (log2 ratio); higher = more trypsin-susceptible (destabilized). The conditions noted are these: ligand concentration: 20 uM; sample: mouse liver crude lysate; replicate design: treated separately.
On to “UniProt Q91W39 (peptide sequence: DSRDPLYRR, peptide start residue: 115)”, for which the log2 fold change was -0.611.

In the case of “UniProt Q91VH1 (peptide sequence: GSAGAQGNGAPSGNR, peptide start residue: 6)”, the log2 fold change is -0.606.

Take “UniProt Q91YN5 (peptide sequence: SSHQEKVDAR, peptide start residue: 59)”: the log2 fold change is -0.746.

As for “UniProt Q91VA6 (peptide sequence: IFSLSGTLETVR, peptide start residue: 286)”, the log2 fold change was 0.259.

“UniProt Q91WE1 (peptide sequence: LEEFPAFPR, peptide start residue: 73)”: the log2 fold change is -0.311.

With “UniProt Q8VI47 (peptide sequence: GYKHPLTIEDVWDIEENLK, peptide start residue: 215)”, the log2 fold change is -0.61.

As for “UniProt Q91WD5 (peptide sequence: IIEQCLNK, peptide start residue: 343)”, the log2 fold change is -0.154.

As to “UniProt Q91VL8 (peptide sequence: KFGAQNVAR, peptide start residue: 378)”, the log2 fold change is -0.297.

As for “UniProt Q91VJ5 (peptide sequence: AFDKADREEGK, peptide start residue: 162)”, the log2 fold change is -0.66.

On to “UniProt Q91XE0 (peptide sequence: QHLQIQSSQSHLNK, peptide start residue: 100)”, for which the log2 fold change is -0.202.

With “UniProt Q91VX2 (peptide sequence: ESTAGDGPSTVSR, peptide start residue: 468)”, the log2 fold change amounted to 0.0799.

For the target “UniProt Q91VC4 (peptide sequence: AAQAAQEAR, peptide start residue: 311)”, the log2 fold change is -0.975.

“UniProt Q91VR5 (peptide sequence: GKHYYEVSCHDQGLCR, peptide start residue: 131)”: the log2 fold change was -0.609.

Turning to “UniProt Q91VE6 (peptide sequence: ALTQIQGR, peptide start residue: 25)”, the log2 fold change was -0.149.

Consider “UniProt Q91WE6 (peptide sequence: FYVAHNR, peptide start residue: 450)”, for which the log2 fold change amounted to 0.159.

For the target “UniProt Q91YW3 (peptide sequence: RATVFLAMGK, peptide start residue: 77)”, the log2 fold change is 0.389.

Regarding “UniProt Q91WK2 (peptide sequence: VDEMSQDIIK, peptide start residue: 250)”, the log2 fold change stood at 0.332.

On to “UniProt Q91WC0 (peptide sequence: QNQIPTEDGSR, peptide start residue: 255)”, for which the log2 fold change is -0.645.

Turning to “UniProt Q91Z67 (peptide sequence: VLNELYSVMK, peptide start residue: 156)”, the log2 fold change was 0.259.

Turning to “UniProt Q91YE7 (peptide sequence: NGDEENPLKR, peptide start residue: 605)”, the log2 fold change is -0.415.

For “UniProt Q8VIG0 (peptide sequence: NHVDLEAGLR, peptide start residue: 177)”, the log2 fold change was found to be 0.149.

Consider “UniProt Q91ZN5 (peptide sequence: AVPTEPPVQK, peptide start residue: 421)”, for which the log2 fold change was -0.46.

“UniProt Q91YM4 (peptide sequence: WEFPNFNSR, peptide start residue: 565)”: the log2 fold change was -0.161.

For “UniProt Q91WL8 (peptide sequence: LAFTVDDNPTKPTTR, peptide start residue: 90)”, the log2 fold change was -0.207.

“UniProt Q8VI84 (peptide sequence: KHESVIEK, peptide start residue: 126)”: the log2 fold change was -0.267.

For “UniProt Q91ZF0 (peptide sequence: NVGPVDAQVR, peptide start residue: 88)”, the log2 fold change turned out to be 0.225.

As to “UniProt Q91VW3 (peptide sequence: VYSTSVTGSR, peptide start residue: 6)”, the log2 fold change is 0.0654.

Take “UniProt Q91ZR2 (peptide sequence: HFDWLYAR, peptide start residue: 305)”: the log2 fold change came out at 0.308.

With “UniProt Q91ZJ5 (peptide sequence: EFPTVPLVK, peptide start residue: 423)”, the log2 fold change is -0.764.

Turning to “UniProt Q91WN1 (peptide sequence: TYKGSEEELNDIK, peptide start residue: 119)”, the log2 fold change is -0.581.

For “UniProt Q91WA6 (peptide sequence: EVSGQSLQNSK, peptide start residue: 302)”, the log2 fold change stood at 0.0219.

With “UniProt Q91YR5 (peptide sequence: LESADQLAEAVR, peptide start residue: 236)”, the log2 fold change worked out at 0.278.

“UniProt Q91YP0 (peptide sequence: GNIYPVPDSR, peptide start residue: 299)”: the log2 fold change came to 0.231.

For the target “UniProt Q91V57 (peptide sequence: HFVGEKR, peptide start residue: 103)”, the log2 fold change stood at 0.132.

“UniProt Q91YJ5 (peptide sequence: DAEVPIILAINKCDK, peptide start residue: 278)”: the log2 fold change was found to be 0.785.

For the target “UniProt Q91WU6 (peptide sequence: LKSEKPTWER, peptide start residue: 255)”, the log2 fold change amounted to 0.0581.
